Counter-ions that a name gives are not always drawn. The list shows a part of the results. Repeats in this data set agree poorly, so a single value says little.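 JEG3 cells stably carry tetracycline-induced wild-type human LRH-1, a heavily sumoylated nuclear receptor. APOC3 and MUC1 are SUMO-sensitive transcripts, raised by SUMO-less LRH-1 or UBC9 knockdown, measured by RT-qPCR against TBP and DMSO controls. A robust Z-score above +2 or below -2 marked a primary hit before toxicity and TBP filtering.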
Each compound was assayed on JEG3 expressing hLRH-1 (assay: APOC3 transcript change (ddCt vs TBP and DMSO), Z-score over library; higher = higher APOC3 expression). Settings: 10 µM; time (hr): 24.

| SMILES | APOC3 transcript change (Z-score) |
| --- | --- |
| Cc1onc(-c2ccccc2)c1C(=O)N[C@@H]1C(=O)N2[C@@H]1SC(C)(C)[C@@H]2C(=O)O [oxacillin sodium] | 0.104 |
| CCCC(CCC)C(=O)O [Valproic acid sodium] | -0.479 |
| CCn1cc(C(=O)O)c(=O)c2cc(F)c(N3CCN(C)CC3)cc21 [pefloxacine mesylate] | 0.542 |
| CCN(CCCc1ccccc1)CCCc1ccccc1 [alverine citrate] | 0.665 |
| CCCc1nc2c(C)cc(-c3nc4ccccc4n3C)cc2n1Cc1ccc(-c2ccccc2C(=O)O)cc1 [telmisartan] | 0.322 |
| Clc1ccc(C(c2ccccc2Cl)C(Cl)Cl)cc1 (centres undefined) [mitotane] | 0.348 |
| CCCN(CCC)CCc1cccc2c1CC(=O)N2 [ropinirole hydrochloride] | -0.101 |
| CCCNCC(O)COc1ccccc1C(=O)CCc1ccccc1 (centres undefined) [propafenone hydrochloride] | 0.439 |
| O=C(O)c1ccccc1-c1c2cc(I)c(=O)c(I)c-2oc2c(I)c(O)c(I)cc12 [erythrosine sodium] | -1.05 |
| CC(O)CC(C)(C)O (centres undefined) [hexylene glycol] | -0.353 |
| Cc1c(NC(=O)c2cccnc2)c(=O)n(-c2ccccc2)n1C [nifenazone] | 0.733 |
| CCOC(=O)c1ccc(O)cc1 [ethyl paraben] | -0.26 |
| C#CCN[C@@H]1CCc2ccccc21 [rasagiline] | 0.238 |
| CC1=C(CC(=O)O)c2cc(F)ccc2/C1=C\c1ccc(S(C)=O)cc1 (centres undefined) [Sulindac] | -0.522 |
| Cc1c(N(C)C)c(=O)n(-c2ccccc2)n1C [aminopyrine] | 0.0105 |
| Clc1ccc(Cn2c(CN3CCCC3)nc3ccccc32)cc1 [clemizole hydrochloride] | -0.271 |
| CCN(CC)CCNC(=O)c1ccc(NC(C)=O)cc1 [N-Acetylprocainamide hydrochloride] | -0.0623 |
| S=C=Nc1ccc(N=C=S)cc1 [bitoscanate] | 0.0434 |
| CC(C)(C)NCC(O)c1ccc(O)c(CO)c1 (centres undefined) [Albuterol hemisulfate] | 0.214 |
| C#C[C@]1(O)CCC2C3CCC4=CC(=O)CC[C@@H]4C3CC[C@@]21CC (some centres undefined) [norgestrel] | 1.05 |

Some of these compounds in order of molar mass, descending:

| SMILES | APOC3 transcript change (Z-score) |
| --- | --- |
| CC(C)(C)NCC(O)c1ccc(O)c(CO)c1 (centres undefined) [Albuterol hemisulfate] | 0.214 |
| C#CCN[C@@H]1CCc2ccccc21 [rasagiline] | 0.238 |
| CCCC(CCC)C(=O)O [Valproic acid sodium] | -0.479 |

(further entries)

| SMILES | APOC3 transcript change (Z-score) |
| --- | --- |
| O=C(O)CCCCC1SCC2NC(=O)NC21 (centres undefined) [biotin] | -0.303 |
| CCN(CC)CCOC(=O)C(c1ccccc1)c1ccccc1 [adiphenine hydrochloride] | -0.368 |
| O=C(c1ccc(F)cc1)C1CCN(CCn2c(=O)[nH]c3ccccc3c2=O)CC1 [Ketanserin tartrate] | 0.575 |
| Cc1nc(Nc2ncc(C(=O)Nc3c(C)cccc3Cl)s2)cc(N2CCN(CCO)CC2)n1 [dasatinib] | 2.93 |
| CCCCCCc1ccc(O)cc1O.Nc1c2ccccc2nc2ccccc12 [acrisorcin] | 9.63 |
| COc1ccc(-c2ccc3cc(C(=O)O)ccc3c2)cc1C12CC3CC(CC(C3)C1)C2 [adapalene] | 1.06 |
| O=S(=O)(O)CCSSCCS(=O)(=O)O [dimesna] | 0.215 |
| N[C@H](Cc1cc(I)c(Oc2ccc(O)c(I)c2)c(I)c1)C(=O)O [liothyronine] | -0.583 |
| Cc1cc(NS(=O)(=O)c2ccc(N)cc2)no1 [sulfamethoxazole] | -0.708 |
| O=C1OCCN1/N=C/c1ccc([N+](=O)[O-])o1 [furazolidone] | -0.866 |
| CCCCOc1ccc(OCCCN2CCOCC2)cc1 [pramoxine hydrochloride] | 1.61 |
| C[C@@H]1CC(=O)NN=C1c1ccc(NN=C(C#N)C#N)cc1 [levosimendan] | -0.818 |
| Cc1nnc(SCC2=C(C(=O)O)N3C(=O)[C@@H](NC(=O)Cn4cnnn4)[C@H]3SC2)s1 [cefazolin sodium] | -0.533 |
| Cc1ccc(C(=O)Nc2ccc(S(=O)(=O)O)c3cc(S(=O)(=O)O)cc(S(=O)(=O)O)c23)cc1NC(=O)c1cccc(NC(=O)Nc2cccc(C(=O)Nc3cc(C(=O)Nc4ccc(S(=O)(=O)O)c5cc(S(=O)(=O)O)cc(S(=O)(=O)O)c45)ccc3C)c2)c1 [Suramin hexasodium] | -0.0546 |
| CC(C)[C@H]1CC[C@H](C(=O)N[C@H](Cc2ccccc2)C(=O)O)CC1 [nateglinide] | -0.0696 |
| CC1OC1P(=O)(O)O (centres undefined) [fosphomycin] | 0.182 |
| NC[C@H]1CC[C@H](C(=O)O)CC1 [tranexamic acid] | 0.533 |
| CO[C@H]1C[C@H](O[C@H]2[C@H](C)[C@@H](OC3O[C@H](C)C[C@H](N(C)C)[C@H]3O)[C@@H](C)C[C@]3(CO3)C(=O)[C@H](C)[C@@H](O)[C@@H](C)[C@@H](C)OC(=O)[C@@H]2C)O[C@@H](C)[C@@H]1O (some centres undefined) [oleandomycin phosphate] | 0.797 |
| CC1(C)S[C@@H]2[C@H](N3C(=O)[C@@H](c4ccccc4)NC3(C)C)C(=O)N2[C@H]1C(=O)O [hetacillin potassium] | -1.02 |
